Test results published in PMC6058673, “Comparison of hyaluronic acid-based micelles and polyethylene glycol-based micelles on reversal of multidrug resistance and enhanced anticancer efficacy in vitro and in vivo” (Drug Delivery, 2018).
In brackets after ≈: the same amount, converted by molar mass.

System: MCF-7 cells
Assay: MTT cytotoxicity assay in sensitive MCF-7 cells
Assay type: cell-based
Conditions: Homo sapiens, MCF7, DOX concentration
Protocol: The sensitive MCF-7 and multidrug-resistant MCF-7/Adr cells were obtained from Nanjing Kaiji Biotech. Ltd. Co. (Jiangsu, China). Cells were cultured in RPMI-1640 medium containing 10% (v/v) FBS and 1% penicillin–streptomycin at 37 °C with 5% CO2. Additionally, MCF-7/Adr cells were incubated in medium with 1 μg/mL DOX.
The cytotoxicity of various formulations against MCF-7 and MCF-7/Adr cells was assessed by MTT assay. Briefly, MCF-7 and MCF-7/Adr cells were seeded in 96-well plates at a density of 5 × 10^4 cells/well/0.1 mL 1640 culture medium and cultured for 24 h. Then, the cells were treated with DOX-Sol, DOX + Cur, HA-PMs, TPGS2k-PMs and HA/TPGS2k-PMs with multiple concentrations of DOX for 48 and 72 h, respectively. The cells incubated with medium only were utilized as control. At time interval, 20 μL MTT (5 mg/mL) was added and incubated for another 4 h. After that, the medium of each well was discarded and added 200 μL DMSO. The absorbance of each well was measured at 570 nm using a microplate reader. Half-maximal inhibitory concentration (IC50), the resistant index (RI) and reversal factor (RF) were calculated and used to evaluate MDR reversal effects by micelles(Ling et al., [2010]; Wang et al., [2012]).

COc1cccc2c1C(=O)c1c(O)c3c(c(O)c1C2=O)C[C@@](O)(C(=O)CO)C[C@@H]3O[C@H]1C[C@H](N)[C@H](O)[C@H](C)O1 [DOX-Sol, Doxorubicin] showed an IC50 (MCF-7, 48h) of 0.75 µg/mL (≈ 1.38 µM) and an IC50 (MCF-7, 72h) of 0.51 µg/mL (≈ 0.938 µM).
